# Primary screen of a compound library

Amino acid sequences for entries named in this document (tags omitted).
UniProt E9BF75, entry or part of it: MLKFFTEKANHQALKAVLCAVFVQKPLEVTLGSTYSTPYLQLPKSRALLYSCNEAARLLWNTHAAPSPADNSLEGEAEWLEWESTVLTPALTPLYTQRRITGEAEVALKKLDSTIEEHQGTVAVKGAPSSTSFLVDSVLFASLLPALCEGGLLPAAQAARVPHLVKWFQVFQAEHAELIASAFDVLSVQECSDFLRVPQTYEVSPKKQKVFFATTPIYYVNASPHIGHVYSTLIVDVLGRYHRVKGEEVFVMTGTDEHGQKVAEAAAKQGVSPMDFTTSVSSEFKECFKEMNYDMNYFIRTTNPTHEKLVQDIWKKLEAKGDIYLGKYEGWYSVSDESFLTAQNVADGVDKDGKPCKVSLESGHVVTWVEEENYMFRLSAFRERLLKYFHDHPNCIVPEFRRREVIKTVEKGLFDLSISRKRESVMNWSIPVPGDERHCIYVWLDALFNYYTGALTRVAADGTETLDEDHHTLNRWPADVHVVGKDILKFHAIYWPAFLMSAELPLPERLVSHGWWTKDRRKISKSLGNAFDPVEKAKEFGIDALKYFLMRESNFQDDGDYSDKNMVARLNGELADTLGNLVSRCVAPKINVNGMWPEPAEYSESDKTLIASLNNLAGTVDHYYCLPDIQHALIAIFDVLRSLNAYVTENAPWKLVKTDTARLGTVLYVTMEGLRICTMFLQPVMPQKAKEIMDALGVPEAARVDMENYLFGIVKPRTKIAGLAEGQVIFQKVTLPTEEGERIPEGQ

LdMetRS: 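Methionyl-tRNA synthetase (putative), Leishmania donovani (UniProt E9BF75). Primary screen of methionyl-tRNA synthetase; the read-out is not stated. The test concentration is not given. Values are per cent inhibition. Of about 68,000 compounds tested this way, about 24 (0.035%) reached 50% or more in at least one test.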
Mtb heat-shock: 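Assay on Mycobacterium tuberculosis, filed only as a heat shock assay from Cornell; the read-out is not stated. The concentration is filed as 10 mM, unlikely as a test dose, so the dose is not known. Direction is inferred from retests: higher values go with stronger inhibition. About 69,000 compounds were tested under these conditions; 1.4% (about 930) showed 50% or more at least once.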

All values are in %. The record does not define 0% and 100%; most values in the screen are far below 50% and negative numbers occur (in some assays of this library far below -100). Compounds were drawn at random from those tested, without regard to their results.

SMILES: CN(Cc1ccc(-n2cccn2)cc1)C(=O)CCC(F)(F)F
LdMetRS: 10.08%
Mtb heat-shock: 22.31%

SMILES: CCc1cnc(N2C[C@H]3C[C@H](C(=O)NC4CCC4)[C@@H](C2)O3)nc1
LdMetRS: 10.1%

SMILES: O=C(O)C(F)(F)F.[H][C@@]12CCN(Cc3ccc4c(c3)OCO4)C[C@]1(C(=O)NC1CC1)CCO2
Mtb heat-shock: 3.117%

SMILES: Cn1nccc1CCNC(=O)[C@H]1CNC[C@H](C(=O)N2CCCC2)C1
LdMetRS: 14.11%
Mtb heat-shock: 1.09%

SMILES: FC(F)(F)c1ccc(-c2c[nH]c([C@@H]3COCCN3)n2)cc1
LdMetRS: 7.519%
Mtb heat-shock: 8.829%

SMILES: Cc1cncnc1C1CCN(CC2CC2)CC1
LdMetRS: 7.874%
Mtb heat-shock: -13.39%

SMILES: [H][C@@]12C[C@H](C(=O)NC)[C@@]([H])(CN(C(=O)Nc3ccccc3)C1)O2
Mtb heat-shock: -29.03%

SMILES: CC(C)(C)OC(=O)NCC1CCN(C(=O)c2ccccc2O)C1 (stereo not given)
LdMetRS: 4.337%
Mtb heat-shock: 3.755%

SMILES: Cc1cccc(NC(=O)C2(n3cnnn3)CCCCC2)n1
LdMetRS: 11.08%
Mtb heat-shock: -23.83%

SMILES: CC(C)c1cc(N(C)Cc2cc(C3CC3)on2)n2nccc2n1
LdMetRS: 1.535%
Mtb heat-shock: 41.46%

SMILES: CCc1cnc(NC(=O)NC2CCN(C)CC2)s1
LdMetRS: 10.64%
Mtb heat-shock: -28.9%

SMILES: COCCNc1nnc(-c2ccccn2)s1
LdMetRS: 10.13%
Mtb heat-shock: -22.07%

SMILES: O=C(COCc1nc(-c2ccncc2)no1)N1CCCCCC1
LdMetRS: 13.39%
Mtb heat-shock: -22.76%

SMILES: Cc1cccc(CN2CCC(c3csc4nccn34)CC2)n1.O=CO
Mtb heat-shock: -16.79%

SMILES: CC(C)Cn1cnc(S(=O)(=O)Nc2cccnc2-n2cccn2)c1
LdMetRS: -12.03%
Mtb heat-shock: 17.27%

SMILES: COc1ccc(-c2c(C(C)C)nn3c(=N)c(C#N)n[nH]c23)cc1
LdMetRS: 13.87%
Mtb heat-shock: 0%

SMILES: Cc1cccc(C(=O)NC2CCN(c3cnn(C)c3)C2=O)n1 (stereo not given)
LdMetRS: 6.32%
Mtb heat-shock: -9.922%

SMILES: CC(=O)N1CCCN(CC(C)(O)c2cccc(C(F)(F)F)c2)CC1 (stereo not given)
LdMetRS: 9.408%
Mtb heat-shock: 14.7%

SMILES: O=C(O)C(F)(F)F.[H][C@@]12C[C@H](C(=O)NC)[C@@]([H])(CN(Cc3ccc(OC)cc3)C1)O2
Mtb heat-shock: 15.08%

SMILES: O=C(c1ccncc1F)N1CCCC1c1nc(-c2ccccc2)n[nH]1 (stereo not given)
LdMetRS: 6.944%
Mtb heat-shock: 15.88%

SMILES: CC(NC(=O)N1CCN(c2ccc(Cl)cc2)CC1)C(=O)N1CCSCC1 (stereo not given)
LdMetRS: 15.56%
Mtb heat-shock: 11.64%

SMILES: CC(Cn1ccnc1)NC(=O)C1(c2ccc(F)cc2)CC1 (stereo not given)
LdMetRS: 5.164%
Mtb heat-shock: -1.347%

SMILES: O=C1CO[C@@H]2CN(Cc3nccs3)C[C@H]2N1Cc1ccncc1
LdMetRS: 9.15%

SMILES: CCN(c1ccsc1C(=O)N1CCCCC1)S(=O)(=O)c1ccccc1
LdMetRS: 10.42%
Mtb heat-shock: 4.016%

SMILES: CC(C)Nc1ccc(-c2ccnc3c2ccn3C)nn1
LdMetRS: 4.668%
Mtb heat-shock: -32.74%

SMILES: CN(Cc1ccsc1)C(=O)CN1CCOC(Cn2cncn2)C1 (stereo not given)
LdMetRS: 13.11%
Mtb heat-shock: -1.778%

SMILES: Cc1ccsc1C(=O)N1CCC(O)(CN2CCc3ccccc3C2)C1 (stereo not given)
LdMetRS: 8.235%
Mtb heat-shock: -18.44%

SMILES: Cc1nn(CC(=O)Nc2ccc(F)cc2)c(N)c1C#N
LdMetRS: 0.3484%
Mtb heat-shock: 51.75%

SMILES: CCN(C(=O)CN1CCn2c(C)nnc2C1)C1=CCCCC1
LdMetRS: 15.8%
Mtb heat-shock: 2.055%

SMILES: Cc1cc(CN2CCC(c3ccnn3CCO)CC2)no1
LdMetRS: 7.981%
Mtb heat-shock: 13.53%

SMILES: CC1CCN(CCNC(=O)c2ccn(-c3ccccc3)n2)CC1
LdMetRS: 27.64%
Mtb heat-shock: -0.2448%

SMILES: CC(O)CNC(=O)NCc1cccnc1OC1CCCC1 (stereo not given)
LdMetRS: 7.692%
Mtb heat-shock: -13.72%

SMILES: Cn1ccnc1C(=O)N[C@@H]1CN(CC2CCOCC2)[C@@H]2CCCO[C@@H]21
LdMetRS: 16.1%

3 of the entries, repeated:

SMILES,LdMetRS,Mtb heat-shock
Cc1cc(CN2CCC(c3ccnn3CCO)CC2)no1,7.981%,13.53%
COc1ccc(-c2c(C(C)C)nn3c(=N)c(C#N)n[nH]c23)cc1,13.87%,0%
CC1CCN(CCNC(=O)c2ccn(-c3ccccc3)n2)CC1,27.64%,-0.2448%

The values are deposited in ChEMBL (CHEMBL3988442, “University of Dundee, Small-Polar-MMV Screening Library” (2021)).